Measured values taken from paper PMC6488192 (2019).
These are yes or no findings as the source states them, for the method shown. In cells and extracts the contact can be indirect. Binding can be weak; no strength is given.

What was measured:
Assay in all cases: pull-down; TAP-tagged bait recovered on Dynabeads IgG from whole-cell or mitochondria-enriched T. brucei extract (~2 mg protein, with RNase inhibitor); washes 150 mM NaCl, 1 mM EDTA, 10 mM MgOAc, 0.1% NP-40, 25 mM Tris pH 8.0; endogenous partners by Western blot, REL1 by radiolabelled self-adenylation; mutants normalised to WT
[1] = biological target: ^H2F1 Znf1 R/K>A with TAP tag (T. brucei) (UniProt Q585P3)
[2] = biological target: ^H2F1 Znf2 R/K>A with TAP tag (T. brucei) (UniProt Q585P3)
[3] = biological target: ^H2F1 Znf3 R/K>A with TAP tag (T. brucei) (UniProt Q585P3)
[4] = biological target: ^H2F1 Znf4 R/K>A with TAP tag (T. brucei) (UniProt Q585P3)
[5] = biological target: ^H2F1 Znf5 C2>A2 with TAP tag (T. brucei) (UniProt Q585P3)
[6] = biological target: ^H2F1 Znf5 R/K>A with TAP tag (T. brucei) (UniProt Q585P3)

Measured: binding

B1: REH2-Associated Factor 1 (^H2F1), endogenous (protein, UniProt Q585P3 23-524)
chain: CHHPLRIPSVQLAAPRSHTHEDIAYASCPACSRVVHMCDMLTHLITAHRELDQTHCRKMCTERLALYERVIGVPLKKSELTSSGRRVLDFLPTVLPTGYMCNWCDRRSDVYATRDKFLKHVADVHTDIDLEEVEPHVPLPPRGVVVEKSNGDGGPQPTRRLNGVVAVAEKSEPINAVPRILGISLPRGVDRPLKATAQFSDTEFPCELCNRTFNSEIDLLQHLETRHPDGTAEGPAGVDSAAIADVAQFSAKEATTGGDQRVHVICDLCVSSSKVYKMPSALFSHIRFKHPNEDAAFHVERLIREQKTVSSFVCTVCQKAFASAAALDGHFNSKHAEQGEAQNVVGRVTANNCWWCHDCEKGFSSAKGLHGHMQNKHGLSSQTHPCPACKRVFADIYSLEEHLSLQHKTIRLSDIGLLTHVKCSTCERFFLSHEDLHRHAVKHHKKDPRAPAQPFEAPTSASHVAASTSAAVPSEVEATASPQGPRKVKKRKKTTEVSEVTS
binds: all assays above
